Laboratory results: US20240390512A1, “METHODS OF TREATING CHEMOTHERAPY-RESISTANT CANCER WITH AN ANTIBODY-DRUG CONJUGATE” (DAIICHI SANKYO COMPANY, LIMITED, priority 2021, published 2024)
These are yes or no findings as the source states them, for the method shown. Some entries that bind do so weakly or less than the wild type.

Legend:
[1] = biological target: T1, EC2 deletion mutant of human CDH6, on cells (human) (UniProt P55285); assay: flow cytometry; 293α cells transfected with EC2-deleted hCDH6 (open line) against untransfected 293α cells (shaded); antibody 20 nM; anti-rat IgG-FITC
T1 sequence: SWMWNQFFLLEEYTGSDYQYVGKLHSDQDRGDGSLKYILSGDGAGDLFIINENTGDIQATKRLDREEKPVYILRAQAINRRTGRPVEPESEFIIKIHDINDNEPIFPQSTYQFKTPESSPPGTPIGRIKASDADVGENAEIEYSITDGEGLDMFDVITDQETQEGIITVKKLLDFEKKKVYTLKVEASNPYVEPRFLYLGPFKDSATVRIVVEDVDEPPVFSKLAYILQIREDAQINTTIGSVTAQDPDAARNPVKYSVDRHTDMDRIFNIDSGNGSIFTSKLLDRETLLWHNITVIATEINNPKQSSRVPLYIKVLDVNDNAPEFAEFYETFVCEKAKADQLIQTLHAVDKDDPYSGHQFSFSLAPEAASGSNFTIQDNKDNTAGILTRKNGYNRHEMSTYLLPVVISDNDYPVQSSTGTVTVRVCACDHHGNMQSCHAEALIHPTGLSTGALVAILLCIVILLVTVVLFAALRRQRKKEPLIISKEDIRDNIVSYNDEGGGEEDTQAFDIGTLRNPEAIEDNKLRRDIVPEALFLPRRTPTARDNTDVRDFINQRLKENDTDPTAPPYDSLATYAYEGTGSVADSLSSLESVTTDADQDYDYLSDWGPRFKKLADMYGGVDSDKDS

[2] = biological target: T1, EC2 deletion mutant of human CDH6, on cells (human); assay: flow cytometry, transfected 293α cells, 20 nM antibody
[3] = biological target: T2, EC4 deletion mutant of human CDH6, on cells (human) (UniProt P55285); assay: as above
T2 sequence: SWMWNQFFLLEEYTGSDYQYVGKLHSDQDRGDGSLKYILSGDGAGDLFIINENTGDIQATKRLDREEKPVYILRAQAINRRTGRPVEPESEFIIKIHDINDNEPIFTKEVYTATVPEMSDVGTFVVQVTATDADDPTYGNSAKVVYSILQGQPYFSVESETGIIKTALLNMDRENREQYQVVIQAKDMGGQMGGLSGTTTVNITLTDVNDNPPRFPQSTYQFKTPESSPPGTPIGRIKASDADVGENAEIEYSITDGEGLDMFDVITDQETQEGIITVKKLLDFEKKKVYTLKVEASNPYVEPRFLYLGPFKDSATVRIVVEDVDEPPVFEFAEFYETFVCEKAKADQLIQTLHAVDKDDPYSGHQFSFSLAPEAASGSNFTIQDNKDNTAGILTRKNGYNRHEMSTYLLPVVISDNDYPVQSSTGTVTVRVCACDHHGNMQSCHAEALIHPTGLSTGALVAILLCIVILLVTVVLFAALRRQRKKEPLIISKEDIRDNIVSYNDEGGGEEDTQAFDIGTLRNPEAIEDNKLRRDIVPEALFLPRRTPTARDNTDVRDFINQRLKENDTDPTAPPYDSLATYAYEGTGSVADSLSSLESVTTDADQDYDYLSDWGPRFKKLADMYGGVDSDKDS

[4] = biological target: T3, EC5 deletion mutant of human CDH6, on cells (human) (UniProt P55285); assay: as above
T3 sequence: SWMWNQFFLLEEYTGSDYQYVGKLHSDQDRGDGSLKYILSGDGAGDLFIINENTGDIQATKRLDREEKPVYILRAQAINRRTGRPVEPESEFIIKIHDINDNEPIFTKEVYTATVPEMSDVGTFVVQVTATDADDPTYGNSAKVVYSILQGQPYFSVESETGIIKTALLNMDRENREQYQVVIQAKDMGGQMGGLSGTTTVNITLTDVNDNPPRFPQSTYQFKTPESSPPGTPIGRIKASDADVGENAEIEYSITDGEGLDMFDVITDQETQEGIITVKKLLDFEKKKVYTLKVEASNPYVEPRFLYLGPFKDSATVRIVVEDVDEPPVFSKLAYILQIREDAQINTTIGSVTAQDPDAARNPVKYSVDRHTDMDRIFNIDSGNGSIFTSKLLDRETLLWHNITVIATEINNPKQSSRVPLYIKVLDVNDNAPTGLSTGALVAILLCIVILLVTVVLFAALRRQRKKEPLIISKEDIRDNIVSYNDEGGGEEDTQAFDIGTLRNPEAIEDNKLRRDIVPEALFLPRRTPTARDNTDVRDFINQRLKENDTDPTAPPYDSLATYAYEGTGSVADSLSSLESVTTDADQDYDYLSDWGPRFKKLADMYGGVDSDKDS

[5] = biological target: T4, EC1 deletion mutant of human CDH6, on cells (human) (UniProt P55285); assay: as above
T4 sequence: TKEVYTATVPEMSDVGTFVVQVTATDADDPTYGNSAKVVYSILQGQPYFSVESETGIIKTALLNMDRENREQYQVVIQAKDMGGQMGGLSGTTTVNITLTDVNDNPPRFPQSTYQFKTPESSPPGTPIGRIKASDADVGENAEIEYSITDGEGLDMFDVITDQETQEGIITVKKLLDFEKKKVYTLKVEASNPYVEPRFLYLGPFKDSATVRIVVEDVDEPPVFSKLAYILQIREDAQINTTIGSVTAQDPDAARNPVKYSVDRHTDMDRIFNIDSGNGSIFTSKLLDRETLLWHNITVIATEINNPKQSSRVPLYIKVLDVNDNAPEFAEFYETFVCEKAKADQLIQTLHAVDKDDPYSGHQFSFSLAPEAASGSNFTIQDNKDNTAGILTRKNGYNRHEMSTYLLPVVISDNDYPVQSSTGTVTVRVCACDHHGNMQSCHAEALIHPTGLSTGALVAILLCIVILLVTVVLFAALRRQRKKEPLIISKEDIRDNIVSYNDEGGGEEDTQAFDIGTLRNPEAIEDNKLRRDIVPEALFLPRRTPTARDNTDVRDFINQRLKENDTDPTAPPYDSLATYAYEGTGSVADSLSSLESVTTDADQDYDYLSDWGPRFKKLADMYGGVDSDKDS

[6] = biological target: T2, EC4 deletion mutant of human CDH6, on cells (human); assay: flow cytometry; 293α cells transfected with EC4-deleted hCDH6 (open line) against untransfected 293α cells (shaded); antibody 20 nM; anti-rat IgG-FITC
[7] = biological target: T3, EC5 deletion mutant of human CDH6, on cells (human); assay: flow cytometry; 293α cells transfected with EC5-deleted hCDH6 (open line) against untransfected 293α cells (shaded); antibody 20 nM; anti-rat IgG-FITC
[8] = biological target: T4, EC1 deletion mutant of human CDH6, on cells (human); assay: flow cytometry; 293α cells transfected with EC1-deleted hCDH6 (open line) against untransfected 293α cells (shaded); antibody 20 nM; anti-rat IgG-FITC

Measured: binding

B1: rat anti-human CDH6 monoclonal antibody rG055 (antibody, rat IgG2b, V domains shown)
VH: EVQLQESGPGLVRPSQSLSLSCSVTDYSITSNYWGWIRRFPGNKMEWMGYITYSGYTSYNPSLQSRISITRDTSKNQFFLQLNSVTAEDTATYYCARSINHGGYSYVVDAWGPGASVTVSS
VL: DVQMTHSPSYLAASPGESVSISCKTSKNISNYLVWYQQKPGEAYKLLIYSGSTLQSGTPSRFSGSGSGTDFTLTIRSLEPEDFGLYFCQQYYEKPFTFGSGTKLEIKR
binds: all assays above

B2: rat anti-human CDH6 monoclonal antibody rG056 (antibody, rat IgG2b, V domains shown)
VH: EVQLQESGPGLVKPSQSLSLTCSVTDYSITTYFWGWIRKFPGNKMEWMGYMSYRGGTSYNPSLKSRISITRDTSKNQFFLQLNSVTTEDTATYYCARCPNYGGHSLVFDYWGQGVMVTVSS
VL: DVQMTQSPSSLAASPGESVSISCRATKSIGIYLAWYQQKPGKTFKLLIYSGSTLQSGTPSRFSGSGSGTDFTLTIRSLEPEDFGLYFCQQFYENPFTFGSGTKLEIRR
binds: all assays above

B3: rat anti-human CDH6 monoclonal antibody rG061 (antibody, rat IgG2b, V domains shown)
VH: EVQLQESGPGLVKPSQSLSLTCSVTGYSITTYYWGWIRKFPGNKMEWMGYISYSGRTSYNPSLKSRMSITRDASKNQFFLQLNSVTTDDTATYYCARSPINHGGYWYFDFWGPGTMVTVSS
VL: DVQMTQSPSYLAASPGESVSISCKATKSISNYLAWYQQKPGEAYKVLIYSGSTLQSGTPSRFSGSGSGTDFTLTIRSLEPEDFGLYSCQQYYEKPLTFGSGTKLEIKR
binds: all assays above

B4: rat anti-human CDH6 monoclonal antibody rG019 (antibody, rat IgG2b, V domains shown)
VH: QVQLQQSGAELVKPGSSVKISCKASGYTFTRNFMHWIKQQPGNGLEWIGWIYCGDGETEYNQKFNGKATLTADRSSSTAYMELSRLTSEDSAVYFCARGVYGGFAGGYFDFWGQGVMVTVSS
VL: DIQMTQSPSLLSASVGDRVTLNCKASQNIYKNLAWYQQKLGEGPKLLIYDANTLQTGIPSRFSGSGSGSDFTLTISSLQPEDVATYFCQQYYSGWAFGGVTNLELKRA
binds: all assays above
